These are yes or no findings as the source states them, for the method shown. Some entries that bind do so weakly or less than the wild type. Sequences can lack the tags named with a protein.
Biological target: T1, ENHANCED RESPONSE TO ABA1 (ERA1), beta-subunit of PFT, with amino terminal 6xHis tag (Arabidopsis (ecotype Col-0)) (UniProt Q38920)
T1 sequence: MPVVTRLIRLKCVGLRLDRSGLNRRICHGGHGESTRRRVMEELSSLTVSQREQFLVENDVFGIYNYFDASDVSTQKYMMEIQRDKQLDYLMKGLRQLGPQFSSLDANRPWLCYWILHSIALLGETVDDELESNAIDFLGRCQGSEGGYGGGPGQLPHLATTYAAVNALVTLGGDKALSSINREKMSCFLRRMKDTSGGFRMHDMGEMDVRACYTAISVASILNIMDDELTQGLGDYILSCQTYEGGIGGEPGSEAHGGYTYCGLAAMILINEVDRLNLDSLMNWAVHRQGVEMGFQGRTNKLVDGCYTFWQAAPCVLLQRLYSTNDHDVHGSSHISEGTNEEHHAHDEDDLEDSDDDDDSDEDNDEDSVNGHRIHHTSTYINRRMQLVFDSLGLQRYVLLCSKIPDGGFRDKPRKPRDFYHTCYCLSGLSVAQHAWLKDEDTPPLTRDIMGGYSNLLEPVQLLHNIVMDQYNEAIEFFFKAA
Test: co-purification by immobilized metal affinity chromatography; FLAG-tagged alpha-subunit and 6xHis-tagged beta-subunit co-expressed in E. coli; extract on Talon Co2+ resin at 4°C, 50 mM sodium phosphate pH 7.0, 0.3 M NaCl; the purified enzyme was then assayed for prenyltransferase activity

The chains behind the UniProt entries cited, without tags or fusion partners.
UniProt Q9LX33: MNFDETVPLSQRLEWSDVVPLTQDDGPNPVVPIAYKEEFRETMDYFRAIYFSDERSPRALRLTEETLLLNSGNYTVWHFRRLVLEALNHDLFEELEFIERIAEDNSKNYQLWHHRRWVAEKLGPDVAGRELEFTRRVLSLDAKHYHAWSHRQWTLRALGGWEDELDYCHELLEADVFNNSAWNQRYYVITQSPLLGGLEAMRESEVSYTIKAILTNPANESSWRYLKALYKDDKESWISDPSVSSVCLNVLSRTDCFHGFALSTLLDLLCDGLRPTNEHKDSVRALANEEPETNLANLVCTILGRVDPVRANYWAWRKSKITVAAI

binding: binds
Sequence: PLURIPETALA (PLP), common alpha-subunit of PFT and PGGT1, with amino terminal FLAG tag (from UniProt Q9LX33 1-326)
